Assay: general procedure: Fmoc solid-phase peptide synthesis; Amide Resin (1.72 mmol/g) with Fmoc-Linker; Wang Resin; DIC, HOBt
Details: whole synthesis, scale of the general procedure 10 g resin
In the case of Ac-KPLWHV-NH2, the “final purity (method not given)” value was 98.844%.
For Ac-YGWKKQ-NH2, the “final purity (method not given)” value was 99.739%.
In the case of “Ac-Lys-Arg-Tyr-Gly-Trp-NH2 (KRYGW; printed: Lys-Arg-Tyr-Gly-Trp-)”, the “final purity (method not given)” value was 99.876%.
With Ac-KPLWHV-OH the “final purity (method not given)” value was 98.944%.
With Ac-KKWVTH-NH2 the “final purity (method not given)” value was 99.353%.

From patent US20260078144A1 (WINKEY TECHNOLOGY USA INC, priority 2023, published 2026)
